Structures can show the parent of a compound that is named as a salt. This is one part of the list. Hit calls seldom repeat between salt and free forms of one compound.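 Kinases were expressed as nanoluciferase fusions in K562 cells and luminescence was read every 4 h between 2 and 18 h as percent of control, DMSO set to 100% and a positive control to 0%. A time point counts as decreased when the signal drops significantly (2 sigma). The hit call is the authors' own, does not follow from the count of time points alone, and its rule is not shown.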
Columns and labels:
Assay in all cases: kinase-Nluc reporter destabilization hit call (1 = scored as downregulated) (binary); higher = compound decreases kinase abundance
Settings in all cases: K562; 2-18 h
IRAK3 = IRAK3 (UniProt Q9Y616)
JAK1 = JAK1 (UniProt P23458)
LCK = LCK (UniProt P06239)
LIMK1 = LIMK1 (UniProt P53667)
LIMK2 = LIMK2 (UniProt P53671)
LMTK2 = LMTK2 (UniProt Q8IWU2)
LYN = LYN (UniProt P07948)
MAP2K1 = MAP2K1 (UniProt Q02750)
MAP2K2 = MAP2K2 (UniProt P36507)
MAP4K2 = MAP4K2 (UniProt Q12851)

By UniProt entry, the sequences of proteins in these tests, tags left out. Where a name states a change or a piece, a line headed by the entry shows the natural chain unless it says otherwise.
UniProt Q9Y616: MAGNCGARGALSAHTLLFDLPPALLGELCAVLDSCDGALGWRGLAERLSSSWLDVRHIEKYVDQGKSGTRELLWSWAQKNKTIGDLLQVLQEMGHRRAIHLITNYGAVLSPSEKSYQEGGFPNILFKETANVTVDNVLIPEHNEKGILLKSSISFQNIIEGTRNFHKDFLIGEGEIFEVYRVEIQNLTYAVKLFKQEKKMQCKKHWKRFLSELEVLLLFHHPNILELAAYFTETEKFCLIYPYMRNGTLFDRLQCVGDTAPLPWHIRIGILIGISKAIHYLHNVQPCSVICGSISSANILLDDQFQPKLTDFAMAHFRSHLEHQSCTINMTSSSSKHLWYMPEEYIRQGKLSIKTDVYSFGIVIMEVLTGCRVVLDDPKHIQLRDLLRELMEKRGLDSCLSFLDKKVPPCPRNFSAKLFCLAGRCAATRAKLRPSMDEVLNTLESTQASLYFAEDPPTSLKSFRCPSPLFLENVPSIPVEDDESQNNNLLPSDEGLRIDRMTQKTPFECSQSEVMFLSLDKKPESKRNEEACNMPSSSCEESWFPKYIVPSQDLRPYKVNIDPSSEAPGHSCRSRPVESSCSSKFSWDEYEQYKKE
UniProt P23458: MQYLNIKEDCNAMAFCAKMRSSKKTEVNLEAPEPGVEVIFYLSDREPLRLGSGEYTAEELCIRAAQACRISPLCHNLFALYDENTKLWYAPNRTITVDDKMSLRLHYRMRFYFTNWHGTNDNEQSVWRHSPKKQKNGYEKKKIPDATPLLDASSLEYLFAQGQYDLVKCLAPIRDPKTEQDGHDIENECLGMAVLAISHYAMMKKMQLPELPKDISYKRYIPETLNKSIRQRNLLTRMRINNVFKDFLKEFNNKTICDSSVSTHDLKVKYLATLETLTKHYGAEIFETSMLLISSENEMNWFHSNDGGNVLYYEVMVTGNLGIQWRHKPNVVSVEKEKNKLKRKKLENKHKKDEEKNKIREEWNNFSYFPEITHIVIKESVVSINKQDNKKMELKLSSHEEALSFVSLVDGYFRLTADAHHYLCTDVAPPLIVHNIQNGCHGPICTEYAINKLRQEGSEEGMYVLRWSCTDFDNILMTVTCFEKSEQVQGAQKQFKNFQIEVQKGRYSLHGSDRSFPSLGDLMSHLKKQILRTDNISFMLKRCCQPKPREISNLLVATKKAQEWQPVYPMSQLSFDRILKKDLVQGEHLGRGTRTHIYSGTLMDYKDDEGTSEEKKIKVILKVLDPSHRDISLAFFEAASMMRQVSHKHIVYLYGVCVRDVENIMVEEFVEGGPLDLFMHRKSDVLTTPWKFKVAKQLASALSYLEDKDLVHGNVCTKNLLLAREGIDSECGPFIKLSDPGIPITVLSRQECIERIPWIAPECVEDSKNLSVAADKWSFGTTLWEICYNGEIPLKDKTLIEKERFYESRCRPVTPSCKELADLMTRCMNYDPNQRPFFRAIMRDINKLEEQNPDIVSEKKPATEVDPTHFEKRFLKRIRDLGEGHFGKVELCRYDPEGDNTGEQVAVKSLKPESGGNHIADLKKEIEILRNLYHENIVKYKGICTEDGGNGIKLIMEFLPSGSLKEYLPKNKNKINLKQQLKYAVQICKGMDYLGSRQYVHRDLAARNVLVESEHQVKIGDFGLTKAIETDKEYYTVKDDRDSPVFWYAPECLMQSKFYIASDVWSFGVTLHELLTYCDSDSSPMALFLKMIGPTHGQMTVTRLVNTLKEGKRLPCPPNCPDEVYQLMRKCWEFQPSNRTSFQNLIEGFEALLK
UniProt P06239: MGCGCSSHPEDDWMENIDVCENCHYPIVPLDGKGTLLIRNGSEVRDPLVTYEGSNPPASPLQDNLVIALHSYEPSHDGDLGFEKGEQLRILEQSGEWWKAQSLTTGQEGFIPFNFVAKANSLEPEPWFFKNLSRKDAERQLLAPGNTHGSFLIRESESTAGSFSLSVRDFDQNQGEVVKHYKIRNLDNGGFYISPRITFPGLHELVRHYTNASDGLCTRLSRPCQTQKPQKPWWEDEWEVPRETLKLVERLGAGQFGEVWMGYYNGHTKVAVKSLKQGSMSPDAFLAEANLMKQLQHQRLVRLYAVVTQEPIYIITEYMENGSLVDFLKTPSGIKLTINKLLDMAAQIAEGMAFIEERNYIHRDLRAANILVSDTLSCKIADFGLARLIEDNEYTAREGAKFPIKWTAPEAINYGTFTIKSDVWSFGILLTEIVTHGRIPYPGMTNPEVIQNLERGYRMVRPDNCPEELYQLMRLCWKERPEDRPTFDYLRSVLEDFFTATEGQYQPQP
UniProt P53667: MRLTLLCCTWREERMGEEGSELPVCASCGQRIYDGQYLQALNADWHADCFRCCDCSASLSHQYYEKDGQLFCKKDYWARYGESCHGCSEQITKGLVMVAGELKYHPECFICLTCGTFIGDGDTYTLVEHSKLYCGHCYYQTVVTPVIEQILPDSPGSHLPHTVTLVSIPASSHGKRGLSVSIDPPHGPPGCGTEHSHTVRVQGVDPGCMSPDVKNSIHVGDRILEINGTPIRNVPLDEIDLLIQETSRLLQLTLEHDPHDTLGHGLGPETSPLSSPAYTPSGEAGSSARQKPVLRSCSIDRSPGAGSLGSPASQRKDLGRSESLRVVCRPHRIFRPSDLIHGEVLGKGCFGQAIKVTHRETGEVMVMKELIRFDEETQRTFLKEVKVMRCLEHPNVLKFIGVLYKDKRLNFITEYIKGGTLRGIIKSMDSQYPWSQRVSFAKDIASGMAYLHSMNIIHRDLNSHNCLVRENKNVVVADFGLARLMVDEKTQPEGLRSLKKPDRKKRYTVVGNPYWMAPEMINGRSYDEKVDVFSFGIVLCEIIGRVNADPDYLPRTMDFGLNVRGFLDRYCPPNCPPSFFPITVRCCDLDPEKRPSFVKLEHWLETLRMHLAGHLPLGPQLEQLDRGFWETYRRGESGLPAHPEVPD
UniProt P53671: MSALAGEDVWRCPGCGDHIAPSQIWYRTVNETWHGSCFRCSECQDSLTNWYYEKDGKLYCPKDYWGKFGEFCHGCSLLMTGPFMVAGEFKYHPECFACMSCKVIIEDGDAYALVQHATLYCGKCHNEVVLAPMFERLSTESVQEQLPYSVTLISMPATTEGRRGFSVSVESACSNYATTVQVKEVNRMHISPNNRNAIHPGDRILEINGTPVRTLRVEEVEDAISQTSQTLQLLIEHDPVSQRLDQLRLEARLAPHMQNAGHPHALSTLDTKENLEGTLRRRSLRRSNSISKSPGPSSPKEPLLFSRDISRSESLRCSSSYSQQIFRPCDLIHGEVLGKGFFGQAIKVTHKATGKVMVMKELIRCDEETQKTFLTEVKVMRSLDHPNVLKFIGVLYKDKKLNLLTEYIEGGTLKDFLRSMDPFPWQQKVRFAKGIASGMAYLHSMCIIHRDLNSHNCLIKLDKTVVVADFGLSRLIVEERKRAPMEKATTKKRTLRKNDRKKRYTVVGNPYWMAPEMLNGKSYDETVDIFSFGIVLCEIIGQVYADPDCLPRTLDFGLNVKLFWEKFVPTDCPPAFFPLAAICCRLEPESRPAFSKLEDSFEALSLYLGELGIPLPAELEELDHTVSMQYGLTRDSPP
UniProt Q8IWU2: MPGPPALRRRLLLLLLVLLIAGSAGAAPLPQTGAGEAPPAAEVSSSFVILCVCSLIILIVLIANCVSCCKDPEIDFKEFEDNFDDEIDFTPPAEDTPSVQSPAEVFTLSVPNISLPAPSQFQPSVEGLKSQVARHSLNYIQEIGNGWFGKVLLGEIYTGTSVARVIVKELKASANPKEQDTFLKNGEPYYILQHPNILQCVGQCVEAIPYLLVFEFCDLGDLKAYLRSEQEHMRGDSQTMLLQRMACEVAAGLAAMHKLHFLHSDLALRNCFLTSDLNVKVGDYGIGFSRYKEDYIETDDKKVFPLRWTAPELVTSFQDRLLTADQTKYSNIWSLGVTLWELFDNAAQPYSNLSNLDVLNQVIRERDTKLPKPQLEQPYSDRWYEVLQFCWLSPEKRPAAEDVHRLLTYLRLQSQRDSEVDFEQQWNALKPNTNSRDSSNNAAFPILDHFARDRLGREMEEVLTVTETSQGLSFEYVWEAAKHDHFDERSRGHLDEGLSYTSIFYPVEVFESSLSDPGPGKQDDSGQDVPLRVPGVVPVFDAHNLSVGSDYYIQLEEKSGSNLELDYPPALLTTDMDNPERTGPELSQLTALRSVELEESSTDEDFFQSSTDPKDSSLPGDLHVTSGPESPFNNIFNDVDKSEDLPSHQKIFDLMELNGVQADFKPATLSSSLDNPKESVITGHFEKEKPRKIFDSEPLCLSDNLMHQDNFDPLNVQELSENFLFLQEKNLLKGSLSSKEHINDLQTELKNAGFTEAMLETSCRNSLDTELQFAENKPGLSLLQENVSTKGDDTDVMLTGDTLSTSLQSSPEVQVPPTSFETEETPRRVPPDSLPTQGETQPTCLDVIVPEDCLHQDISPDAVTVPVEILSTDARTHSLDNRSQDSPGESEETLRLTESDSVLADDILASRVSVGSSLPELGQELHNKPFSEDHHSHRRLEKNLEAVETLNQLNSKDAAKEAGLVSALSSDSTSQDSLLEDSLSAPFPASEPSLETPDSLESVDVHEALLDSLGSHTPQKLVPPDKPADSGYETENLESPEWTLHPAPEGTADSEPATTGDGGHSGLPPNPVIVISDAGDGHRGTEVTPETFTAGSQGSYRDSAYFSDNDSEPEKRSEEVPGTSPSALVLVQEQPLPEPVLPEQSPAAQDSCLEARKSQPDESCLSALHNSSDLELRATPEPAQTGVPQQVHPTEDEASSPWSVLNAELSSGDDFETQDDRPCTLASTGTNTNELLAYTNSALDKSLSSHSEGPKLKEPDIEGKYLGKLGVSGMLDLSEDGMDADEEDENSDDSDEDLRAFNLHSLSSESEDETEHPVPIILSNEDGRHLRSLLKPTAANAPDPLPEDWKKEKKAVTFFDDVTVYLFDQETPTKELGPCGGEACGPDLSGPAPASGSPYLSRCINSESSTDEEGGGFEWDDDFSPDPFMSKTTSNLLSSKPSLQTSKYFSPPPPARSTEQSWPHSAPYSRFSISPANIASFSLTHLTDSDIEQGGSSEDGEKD
UniProt P07948: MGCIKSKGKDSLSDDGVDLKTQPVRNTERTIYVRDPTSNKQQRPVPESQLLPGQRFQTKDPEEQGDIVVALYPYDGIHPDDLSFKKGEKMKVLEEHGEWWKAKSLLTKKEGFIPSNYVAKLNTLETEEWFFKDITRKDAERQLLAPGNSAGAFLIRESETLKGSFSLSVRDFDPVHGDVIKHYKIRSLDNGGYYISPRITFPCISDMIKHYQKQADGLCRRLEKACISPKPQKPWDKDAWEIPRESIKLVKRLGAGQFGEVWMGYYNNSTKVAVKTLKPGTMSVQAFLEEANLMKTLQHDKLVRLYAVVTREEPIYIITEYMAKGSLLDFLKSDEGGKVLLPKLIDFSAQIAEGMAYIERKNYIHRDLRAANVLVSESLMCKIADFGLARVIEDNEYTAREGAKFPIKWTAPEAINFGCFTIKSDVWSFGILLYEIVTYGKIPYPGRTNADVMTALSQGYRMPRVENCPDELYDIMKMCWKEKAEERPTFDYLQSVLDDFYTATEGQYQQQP
UniProt Q12851: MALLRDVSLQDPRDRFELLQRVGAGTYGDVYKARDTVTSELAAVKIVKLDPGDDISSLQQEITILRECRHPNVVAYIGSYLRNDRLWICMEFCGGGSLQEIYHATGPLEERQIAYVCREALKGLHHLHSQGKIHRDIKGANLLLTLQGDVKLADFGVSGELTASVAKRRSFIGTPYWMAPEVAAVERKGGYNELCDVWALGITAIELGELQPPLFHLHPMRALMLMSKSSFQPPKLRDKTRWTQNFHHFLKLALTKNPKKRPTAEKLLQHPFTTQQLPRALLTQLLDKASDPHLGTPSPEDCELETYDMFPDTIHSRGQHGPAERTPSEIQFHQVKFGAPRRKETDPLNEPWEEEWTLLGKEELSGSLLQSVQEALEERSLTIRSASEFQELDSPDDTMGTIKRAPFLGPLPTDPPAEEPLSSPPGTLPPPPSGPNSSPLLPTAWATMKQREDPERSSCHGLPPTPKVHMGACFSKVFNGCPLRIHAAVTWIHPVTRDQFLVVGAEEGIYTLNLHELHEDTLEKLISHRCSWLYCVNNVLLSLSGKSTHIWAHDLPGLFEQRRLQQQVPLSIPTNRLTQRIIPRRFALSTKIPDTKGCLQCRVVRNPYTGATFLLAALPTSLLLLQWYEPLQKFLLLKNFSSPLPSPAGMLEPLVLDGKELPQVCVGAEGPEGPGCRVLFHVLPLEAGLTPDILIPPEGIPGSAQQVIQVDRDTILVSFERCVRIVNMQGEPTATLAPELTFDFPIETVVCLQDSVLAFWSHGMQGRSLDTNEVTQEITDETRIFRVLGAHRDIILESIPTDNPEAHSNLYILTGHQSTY

Measured: kinase-Nluc reporter destabilization hit call

CC(=O)c1c(C)c2cnc(Nc3ccc(N4CCN(C(=O)CNc5cccc6c5C(=O)N(C5CCC(=O)NC5=O)C6=O)CC4)cn3)nc2n(C2CCCC2)c1=O (stereo not given) (10 µM)
inactive: IRAK3 = 0 | JAK1 = 0 | LCK 0 | LIMK1 = 0 | LIMK2 = 0 | LMTK2 = 0 | LYN 0 | MAP2K1 = 0 | MAP2K2 = 0 | MAP4K2 = 0

Cc1ccc(Oc2nc3cc(-c4ccc(-c5ccccc5)cc4)c(Cl)cc3[nH]2)cc1C(=O)O (10 µM)
inactive: IRAK3 = 0 | JAK1 = 0 | LCK 0 | LIMK1 = 0 | LIMK2 = 0 | LMTK2 = 0 | LYN 0 | MAP2K1 = 0 | MAP2K2 = 0 | MAP4K2 = 0

C=CC(=O)N1CCC[C@H](n2c(=O)n(-c3ccc(Oc4ccccc4)cc3)c3c(N)ncnc32)C1 [ONO-4059 (analog)] (10 µM)
inactive: IRAK3 = 0 | JAK1 = 0 | LCK 0 | LIMK1 = 0 | LIMK2 = 0 | LMTK2 = 0 | LYN 0 | MAP2K1 = 0 | MAP2K2 = 0 | MAP4K2 = 0

c1ccc(-c2nc3c(c(-n4ccc5cnccc54)n2)CCC3)nc1 (10 µM)
inactive: IRAK3 = 0 | JAK1 = 0 | LCK 0 | LIMK1 = 0 | LIMK2 = 0 | LMTK2 = 0 | LYN 0 | MAP2K1 = 0 | MAP2K2 = 0 | MAP4K2 = 0

Cn1cc2cc(C(F)(F)c3nnc4ccc(-c5cnn(C6CC6)c5)nn34)c(F)cc2n1 [Bozitinib] (10 µM)
inactive: IRAK3 = 0 | JAK1 = 0 | LCK 0 | LIMK1 = 0 | LIMK2 = 0 | LMTK2 = 0 | LYN 0 | MAP2K1 = 0 | MAP2K2 = 0 | MAP4K2 = 0

CCN(CC)c1ccc2cc(-c3nc4cc(C)ccc4o3)c(=O)oc2c1 (10 µM)
inactive: IRAK3 = 0 | JAK1 = 0 | LCK 0 | LIMK1 = 0 | LIMK2 = 0 | LMTK2 = 0 | LYN 0 | MAP2K1 = 0 | MAP2K2 = 0 | MAP4K2 = 0

Cn1cc(-c2cnc3cnn(S(=O)(=O)c4cnc5ccc(-c6cnn(C)c6)cn45)c3c2)cn1 [Glumetinib] (10 µM)
inactive: IRAK3 = 0 | JAK1 = 0 | LCK 0 | LIMK1 = 0 | LIMK2 = 0 | LMTK2 = 0 | LYN 0 | MAP2K1 = 0 | MAP2K2 = 0 | MAP4K2 = 0

CS(=O)(=O)c1ccc(-c2cnc(N)c(-c3ccc(C(F)(F)F)nc3)c2)cc1 (10 µM)
inactive: IRAK3 = 0 | JAK1 = 0 | LCK 0 | LIMK1 = 0 | LIMK2 = 0 | LMTK2 = 0 | LYN 0 | MAP2K1 = 0 | MAP2K2 = 0 | MAP4K2 = 0

C=CC(=O)N1C[C@H](COc2nc(Nc3cnn(C)c3)nc3[nH]cc(Cl)c23)[C@@H](OC)C1 (2.5 µM)
inactive: IRAK3 = 0 | JAK1 = 0 | LCK 0 | LIMK1 = 0 | LIMK2 = 0 | LMTK2 = 0 | LYN 0 | MAP2K1 = 0 | MAP2K2 = 0 | MAP4K2 = 0

O=C1/C(=C\c2ccc(Cl)cc2)C=C(c2ccccc2)N1c1ccc(O)cc1 (2.5 µM)
inactive: IRAK3 = 0 | JAK1 = 0 | LCK 0 | LIMK1 = 0 | LIMK2 = 0 | LMTK2 = 0 | LYN 0 | MAP2K1 = 0 | MAP2K2 = 0 | MAP4K2 = 0

C#Cc1cccc(Nc2ncnc3cc(OC)c(OCCCCCCC(=O)NO)cc23)c1 (2.5 µM)
inactive: IRAK3 = 0 | JAK1 = 0 | LCK 0 | LIMK1 = 0 | LIMK2 = 0 | LMTK2 = 0 | LYN 0 | MAP2K1 = 0 | MAP2K2 = 0 | MAP4K2 = 0

COc1ccc(-c2coc3cc(O)ccc3c2=O)cc1 [Formononetin] (10 µM)
inactive: IRAK3 = 0 | JAK1 = 0 | LCK 0 | LIMK1 = 0 | LIMK2 = 0 | LMTK2 = 0 | LYN 0 | MAP2K1 = 0 | MAP2K2 = 0 | MAP4K2 = 0

O=C(N[C@@H](C1CC1)C(F)(F)F)c1cc(-c2cnn3cc(-c4ccc(F)cc4)cnc23)cs1 (10 µM)
inactive: IRAK3 = 0 | JAK1 = 0 | LCK 0 | LIMK1 = 0 | LIMK2 = 0 | LMTK2 = 0 | LYN 0 | MAP2K1 = 0 | MAP2K2 = 0 | MAP4K2 = 0

Looked up by compound from above, two records:
C=CC(=O)N1CCC[C@H](n2c(=O)n(-c3ccc(Oc4ccccc4)cc3)c3c(N)ncnc32)C1 [ONO-4059 (analog)] (10 µM)
inactive: IRAK3 = 0 | JAK1 = 0 | LCK 0 | LIMK1 = 0 | LIMK2 = 0 | LMTK2 = 0 | LYN 0 | MAP2K1 = 0 | MAP2K2 = 0 | MAP4K2 = 0

CC(=O)c1c(C)c2cnc(Nc3ccc(N4CCN(C(=O)CNc5cccc6c5C(=O)N(C5CCC(=O)NC5=O)C6=O)CC4)cn3)nc2n(C2CCCC2)c1=O (stereo not given) (10 µM)
inactive: IRAK3 = 0 | JAK1 = 0 | LCK 0 | LIMK1 = 0 | LIMK2 = 0 | LMTK2 = 0 | LYN 0 | MAP2K1 = 0 | MAP2K2 = 0 | MAP4K2 = 0

More entries follow:

Cc1cc(Nc2nc(CC3(C(=O)O)CCN(C(=O)c4cccc(Cl)c4Cl)CC3)ccc2F)n[nH]1 (10 µM)
inactive: IRAK3 = 0 | JAK1 = 0 | LCK 0 | LIMK1 = 0 | LIMK2 = 0 | LMTK2 = 0 | LYN 0 | MAP2K1 = 0 | MAP2K2 = 0 | MAP4K2 = 0

Cc1cccc(-c2[nH]c(C(C)(C)C)nc2-c2ccc3nccnc3c2)n1 (10 µM)
inactive: IRAK3 = 0 | JAK1 = 0 | LCK 0 | LIMK1 = 0 | LIMK2 = 0 | LMTK2 = 0 | LYN 0 | MAP2K1 = 0 | MAP2K2 = 0 | MAP4K2 = 0

O=C1NC(=Nc2c(Cl)cccc2Cl)S/C1=C\c1ccc2nccnc2c1 (2.5 µM)
inactive: IRAK3 = 0 | JAK1 = 0 | LCK 0 | LIMK1 = 0 | LIMK2 = 0 | LMTK2 = 0 | LYN 0 | MAP2K1 = 0 | MAP2K2 = 0 | MAP4K2 = 0

Nc1n[nH]c2nc(-c3ccc(NS(=O)(=O)c4cc(Cl)ccc4F)cc3)cnc12 (10 µM)
inactive: IRAK3 = 0 | JAK1 = 0 | LCK 0 | LIMK1 = 0 | LIMK2 = 0 | LMTK2 = 0 | LYN 0 | MAP2K1 = 0 | MAP2K2 = 0 | MAP4K2 = 0

C[C@@H]1CCNC(=O)c2cc3ccc(C(=O)Nc4nc5ccccc5n4CCCN(C)C)cc3n21 (10 µM)
inactive: IRAK3 = 0 | JAK1 = 0 | LCK 0 | LIMK1 = 0 | LIMK2 = 0 | LMTK2 = 0 | LYN 0 | MAP2K1 = 0 | MAP2K2 = 0 | MAP4K2 = 0

CCOC(=O)N1C/C(=C/c2ccccc2F)C(=O)/C(=C\c2ccccc2F)C1 (2.5 µM)
inactive: IRAK3 = 0 | JAK1 = 0 | LCK 0 | LIMK1 = 0 | LIMK2 = 0 | LMTK2 = 0 | LYN 0 | MAP2K1 = 0 | MAP2K2 = 0 | MAP4K2 = 0

Nc1nccc(Oc2ccc(NC(=O)c3c[nH]cc(-c4ccc(F)cc4)c3=O)cc2F)c1Cl (10 µM)
inactive: IRAK3 = 0 | JAK1 = 0 | LCK 0 | LIMK1 = 0 | LIMK2 = 0 | LMTK2 = 0 | LYN 0 | MAP2K1 = 0 | MAP2K2 = 0 | MAP4K2 = 0

Cc1cnc(-c2ccc(-c3ccc(NC(=O)Nc4cccc(C(F)(F)F)c4)cc3F)c3c2C(=O)NC3)[nH]1 (10 µM)
inactive: IRAK3 = 0 | JAK1 = 0 | LCK 0 | LIMK1 = 0 | LIMK2 = 0 | LMTK2 = 0 | LYN 0 | MAP2K1 = 0 | MAP2K2 = 0 | MAP4K2 = 0

CN1CC[C@@H](c2c(O)cc(O)c3c(=O)cc(-c4ccc(C(F)(F)F)cc4Cl)oc23)[C@@H]1CO [Voruciclib (hydrochloride)] (10 µM)
inactive: IRAK3 = 0 | JAK1 = 0 | LCK 0 | LIMK1 = 0 | LIMK2 = 0 | LMTK2 = 0 | LYN 0 | MAP2K1 = 0 | MAP2K2 = 0 | MAP4K2 = 0

CC(C)CNc1ccnc(NCc2csc(-c3ccccc3)n2)n1 [KHS101 hydrochloride] (2.5 µM)
inactive: IRAK3 = 0 | JAK1 = 0 | LCK 0 | LIMK1 = 0 | LIMK2 = 0 | LMTK2 = 0 | LYN 0 | MAP2K1 = 0 | MAP2K2 = 0 | MAP4K2 = 0

Nc1ncnc2c1c(-c1ccc(Oc3ccccc3)cc1)nn2C1CCN(CCOCCOCCOc2ccc3c(c2)CN(C2CCC(=O)NC2=O)C3=O)CC1 (stereo not given) (2.5 µM)
inactive: IRAK3 = 0 | JAK1 = 0 | LCK 0 | LIMK1 = 0 | LIMK2 = 0 | LMTK2 = 0 | LYN 0 | MAP2K1 = 0 | MAP2K2 = 0 | MAP4K2 = 0

COc1cc(/C=C/C(=O)N2CCC=CC2=O)cc(OC)c1OC [Piperlongumine] (2.5 µM)
inactive: IRAK3 = 0 | JAK1 = 0 | LCK 0 | LIMK1 = 0 | LIMK2 = 0 | LMTK2 = 0 | LYN 0 | MAP2K1 = 0 | MAP2K2 = 0 | MAP4K2 = 0

N[C@@H](CCC(=O)O)C(=O)N[C@@H](Cc1c[nH]c2ccccc12)C(=O)O [Oglufanide] (10 µM)
inactive: IRAK3 = 0 | JAK1 = 0 | LCK 0 | LIMK1 = 0 | LIMK2 = 0 | LMTK2 = 0 | LYN 0 | MAP2K1 = 0 | MAP2K2 = 0 | MAP4K2 = 0

COc1c(Nc2cc(C)[nH]n2)nc(Sc2ccc(S(=O)(=O)Cc3cccc([N+](=O)[O-])c3F)cc2F)nc1N1CCCCC1 [Centrinone-B] (2.5 µM)
inactive: IRAK3 = 0 | JAK1 = 0 | LCK 0 | LIMK1 = 0 | LIMK2 = 0 | LMTK2 = 0 | LYN 0 | MAP2K1 = 0 | MAP2K2 = 0 | MAP4K2 = 0

C=C[C@@](C)(/C=C/c1ccc(O)cc1)CCC=C(C)C [Bakuchiol] (10 µM)
inactive: IRAK3 = 0 | JAK1 = 0 | LCK 0 | LIMK1 = 0 | LIMK2 = 0 | LMTK2 = 0 | LYN 0 | MAP2K1 = 0 | MAP2K2 = 0 | MAP4K2 = 0

NC(=O)c1cnc2[nH]ccc2c1N[C@@H]1[C@@H]2CC3C[C@H]1C[C@@](O)(C3)C2 [Peficitinib] (10 µM)
inactive: IRAK3 = 0 | JAK1 = 0 | LCK 0 | LIMK1 = 0 | LIMK2 = 0 | LMTK2 = 0 | LYN 0 | MAP2K1 = 0 | MAP2K2 = 0 | MAP4K2 = 0
